The nature of the experiment: modulators of CD8 T cell-vesicle binding, confirmation, cherry-picked primary hits, two concentrations (AID 2810).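 For all read-outs here: lower values mean blocking of vesicle binding.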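 For percent response (vesicle binding): ratio of mean FL2 vesicle stain of CD8+ cells to that row's control.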 Particulars: 2C CD8+ T cell-vesicle binding, flow cytometry; for double positive events: CD8+/vesicle+ events.
Setting [1] is: at 15.4 µM, stronger effect = lower value.

The list shows a part of the results. Shown are side measurements of this screen, not its main read-out; they come without a call.

With `CCN(CC)c1ccc(CNc2nc3ccccc3n2CC)cc1`, where the note is “at 7.7 µM”, the double positive events was 13.4% and the percent response (vesicle binding) came to 473%. For the same compound, under setting [1], the double positive events was 18%.

For the setting “at 7.7 µM”, `CN(C)S(=O)(=O)c1ccc(Cl)c(NC(=O)COc2ccccc2[N+](=O)[O-])c1` displayed a double positive events of 11% and a percent response (vesicle binding) of 312%. Under setting [1], this compound returned a double positive events of 34.5%.

In the case of `CC1CCCCN1CCNC(=O)CCc1nnc2n(Cc3ccccc3)c(=O)c3ccccc3n12` (configuration not stated), the double positive events stood at 33.3% (at 7.7 µM) and 7.1% under setting [1]. Under “at 7.7 µM”, this compound showed a percent response (vesicle binding) of 369%.

Under “at 7.7 µM”, `COC(=O)c1ccccc1NC(=O)C1CCN(C(=O)c2cc(OC)cc(OC)c2)CC1` returned a double positive events of 10.2% and a percent response (vesicle binding) of 364%. This compound yielded a double positive events under setting [1] of 6.6%.

Take `COc1cccc(/C=N/NC(N)=S)c1OCc1ccccc1Cl`: for the setting “at 7.7 µM”, the double positive events stood at 27.2% and the percent response (vesicle binding) amounted to 243%. Besides, the double positive events under setting [1] was 10.5%.

Consider `CC(NC(=O)Nc1cccnc1)(C(F)(F)F)C(F)(F)F`, for which, where the note is “at 7.7 µM”, the double positive events amounted to 7.6% and the percent response (vesicle binding) came to 147%. The compound also yielded a double positive events under setting [1] of 22.1%.

Under “at 7.7 µM”, `Cn1c(N)c(C(=O)COC(=O)c2ccccc2C(=O)c2ccccc2)c(=O)n(C)c1=O` showed a double positive events of 13.5% and a percent response (vesicle binding) of 163%. Further, the double positive events under setting [1] was found to be 7.9%.

For the compound `CCCN1C(=O)C(=O)N(CC(=O)c2cc(C)n(C3CC3)c2C)C1=O`, under “at 7.7 µM”, the double positive events amounted to 13.4% and the percent response (vesicle binding) came out at 424%. Under setting [1], the double positive events was 24.6%.

Take `COc1ccc(Nc2nc(Cl)nc(N3CCN(c4ccc(OC)cc4)CC3)n2)cc1`: the double positive events (at 7.7 µM) came to 9.3% and the double positive events under setting [1] is 23%. Moreover, for the setting “at 7.7 µM”, the percent response (vesicle binding) came out at 121%.

Regarding `CC(C)c1ccc(NC(=O)COC(=O)[C@H](CCC(N)=O)NC(=O)c2ccc(F)cc2)cc1`, where the note is “at 7.7 µM”, the double positive events is 29.5% and the percent response (vesicle binding) was determined as 180%. Also, the double positive events under setting [1] amounted to 12.4%.

For the setting “at 7.7 µM”, `CCCCn1c(N)c(N(CCOC)C(=O)c2ccc(-c3ccc([N+](=O)[O-])cc3)o2)c(=O)[nH]c1=O` yielded a double positive events of 16.2% and a percent response (vesicle binding) of 199%. This compound displayed a double positive events under setting [1] of 26.2%.

`CNCc1cn2cc(Cl)ccc2n1`: for the setting “at 7.7 µM”, the double positive events was determined as 19.8% and the percent response (vesicle binding) was found to be 316%. This compound came in with a double positive events under setting [1] of 2.2%.

Turning to `Cc1ccc(OCCN2C(=O)c3ccccc3C2=O)c(C)c1`, for the setting “at 7.7 µM”, the double positive events came to 10.2% and the percent response (vesicle binding) stood at 227%. Further, the double positive events under setting [1] turned out to be 14.9%.

For the compound `Cc1ccc(S(=O)(=O)Nc2ccccc2C=Nc2cccc(C)c2C)cc1`, where the note is “at 7.7 µM”, the double positive events was 28.6% and the percent response (vesicle binding) came to 208%. Further, the double positive events under setting [1] amounted to 19%.

`COc1ccc(NC(=O)[C@H](C)NC(=O)C2CCN(S(=O)(=O)c3ccc(C)cc3)CC2)cc1`: where the note is “at 7.7 µM”, the double positive events was found to be 10.7% and the percent response (vesicle binding) came to 166%. Besides, the double positive events under setting [1] is 15.7%.

With `O=C(COc1ccc(F)cc1)Nc1nnc(C2CCCCC2)s1`, where the note is “at 7.7 µM”, the double positive events was 24.6% and the percent response (vesicle binding) came to 117%. The same compound gave a double positive events under setting [1] of 10.9%.

Take `COc1cccc(-c2nc(NCC3CCCO3)c3ccccc3n2)c1O` (configuration not stated): under “at 7.7 µM”, the double positive events amounted to 10.9% and the percent response (vesicle binding) was 191%. The compound further yielded a double positive events under setting [1] of 22.4%.

In the case of `CCOC(=O)c1ccc(-n2c(C)nc3c(cnn3-c3ccccc3Cl)c2=O)cc1`, under “at 7.7 µM”, the double positive events was determined as 13% and the percent response (vesicle binding) came to 135%. Under setting [1], this compound came in with a double positive events of 6.9%.

Regarding `CC1CCCC(C)N1CCNC(=O)CCc1nnc2n(Cc3ccccc3)c(=O)c3ccccc3n12` (configuration not stated), where the note is “at 7.7 µM”, the double positive events was 29.4% and the percent response (vesicle binding) came out at 384%. The double positive events under setting [1] was determined as 16.9%.

With `COc1ccc(C(=O)N2CCN(c3ccc(C)cc3C)CC2)cc1OC`, for the setting “at 7.7 µM”, the double positive events was determined as 16.3% and the percent response (vesicle binding) was 97.4%. Also, the double positive events under setting [1] worked out at 22.1%.

Where the note is “at 7.7 µM”, `COc1ccc(CNC(=O)c2ccc3oc(C(C)C)nc3c2)cc1` had a double positive events of 18.5% and a percent response (vesicle binding) of 177%. For the same compound, the double positive events under setting [1] turned out to be 27.8%.

For `CC(=O)Nc1cccc(NC(=O)COC(=O)CO/N=C(\C)c2ccc3c(c2)OCO3)c1`, under “at 7.7 µM”, the double positive events was found to be 33.8% and the percent response (vesicle binding) stood at 322%. For the same compound, the double positive events under setting [1] came to 9.2%.

As for `NS(=O)(=O)c1ccc(CCNC(=O)C2CCN(S(=O)(=O)c3cccc4cccnc34)CC2)cc1`, under “at 7.7 µM”, the double positive events stood at 14.2% and the percent response (vesicle binding) is 483%. Also, the double positive events under setting [1] was determined as 10.7%.

Consider `COc1ccc(C)cc1NC(=O)c1cc(-c2ccccc2)nc2c1cnn2C(C)C`, for which, for the setting “at 7.7 µM”, the double positive events was 9.6% and the percent response (vesicle binding) amounted to 150%. The compound further registered a double positive events under setting [1] of 18.3%.

Under “at 7.7 µM”, `CC(N)c1ccc(Cl)cc1Cl` (configuration not stated) yielded a double positive events of 39.3% and a percent response (vesicle binding) of 308%. Besides, the double positive events under setting [1] was 8.9%.

As to `CC(C)=CCC[C@](C)(O)C1CC[C@]2(C)C1[C@H](O)CC1[C@@]3(C)CC[C@H](O[C@@H]4O[C@H](CO)[C@@H](O)[C@H](O)[C@H]4O[C@@H]4O[C@H](CO)[C@@H](O)[C@H](O)[C@H]4O)C(C)(C)C3CC[C@]12C` (some centres not stated), under “at 7.7 µM”, the double positive events worked out at 10.9% and the percent response (vesicle binding) amounted to 402%. In addition, the double positive events under setting [1] is 31.7%.

`COc1ccccc1C(=O)NC(=S)Nc1ccc(S(=O)(=O)N2CCN(C)CC2)cc1`: under “at 7.7 µM”, the double positive events turned out to be 18.4% and the percent response (vesicle binding) amounted to 226%. In addition, the double positive events under setting [1] was 19%.

As for `COc1cc(/C=C/C(=O)O)cc(S(=O)(=O)N(C)CCO)c1OC`, the double positive events stood at 7.4% (at 7.7 µM) and 35.3% under setting [1]. For the same compound, under “at 7.7 µM”, the percent response (vesicle binding) was 240%.

For the compound `Cc1ccc(CNC(=O)C2CCN(S(=O)(=O)c3cnc[nH]3)CC2)cc1`, under “at 7.7 µM”, the double positive events was determined as 32.6% and the percent response (vesicle binding) came out at 288%. In addition, the double positive events under setting [1] is 13%.

With `COc1ccc2c(c1)c(=O)cc(-c1ccccc1)n2C`, for the setting “at 7.7 µM”, the double positive events was 35.8% and the percent response (vesicle binding) came out at 507%. The compound also showed a double positive events under setting [1] of 27.5%.

For the setting “at 7.7 µM”, `Cc1ccc(S(=O)(=O)/N=C2/NC(=O)/C(=C/c3ccccc3)S2)cc1` showed a double positive events of 9.1% and a percent response (vesicle binding) of 185%. Also, under setting [1], the double positive events was determined as 10.8%.

Under “at 7.7 µM”, `COc1ccc(Cl)cc1NC(=O)CN(C)C(=O)c1ccc(-n2nc(C)cc2C)cc1` yielded a double positive events of 36.2% and a percent response (vesicle binding) of 440%. Under setting [1], the double positive events turned out to be 27.1%.

Take `CN(C(=O)c1ccc(=O)n(Cc2ccc(Cl)cc2)c1)c1ccccc1`: for the setting “at 7.7 µM”, the double positive events turned out to be 15.1% and the percent response (vesicle binding) was 372%. In addition, under setting [1], the double positive events was 14.2%.

In the case of `O=C(CN1CCN(CC(=O)Nc2ccccc2Cl)CC1)NCC1(N2CCCCC2)CCCCC1`, for the setting “at 7.7 µM”, the double positive events is 7.4% and the percent response (vesicle binding) came to 292%. The compound further gave a double positive events under setting [1] of 25.3%.

On to `Cc1cccc(NC(=O)CNC(=O)C(NC(=O)Cc2ccccc2)C(C)C)c1C` (configuration not stated), for which, for the setting “at 7.7 µM”, the double positive events was determined as 16.2% and the percent response (vesicle binding) was 360%. For the same compound, the double positive events under setting [1] worked out at 24.4%.

On to `Clc1cccc(N/N=C(\Cc2nc3ccccc3[nH]2)c2ccccc2)c1`, for which, for the setting “at 7.7 µM”, the double positive events was found to be 22.9% and the percent response (vesicle binding) turned out to be 150%. Also, the double positive events under setting [1] turned out to be 10.9%.

Take `O=C(Nc1cc(Cl)c(O)c(Cl)c1)C1CCCO1` (configuration not stated): for the setting “at 7.7 µM”, the double positive events worked out at 12.3% and the percent response (vesicle binding) turned out to be 208%. Further, under setting [1], the double positive events is 24.8%.

Where the note is “at 7.7 µM”, `O=C1c2ccccc2NC(c2ccc(-c3ccc(F)cc3)o2)N1O` (configuration not stated) registered a double positive events of 19.5% and a percent response (vesicle binding) of 335%. Besides, the double positive events under setting [1] was found to be 23.2%.

Where the note is “at 7.7 µM”, `CCOC(=O)c1cc(CC)sc1NC(=O)c1cc([N+](=O)[O-])ccc1N1CCOCC1` gave a double positive events of 26.3% and a percent response (vesicle binding) of 178%. The compound further returned a double positive events under setting [1] of 12.2%.
